# Source: patent US20130065969A9, “Odour Compounds” (priority 2009, published 2013)
# Assay: Odour description
# Conditions: neat compound
row,SMILES,Odour description
1,"CC/C=C(\C)C(C)OC(C)(C)COC(=O)C1CC1 (centres unmarked) [Example 1, (3″E)-2′-Methyl-2′-(3″-methylhex-3″-en-2″-yloxy)propyl cyclopropanecarboxylate]","musky, powdery, spicy with peppery aspects and some reminiscence to Cashmeran"
2,"CC/C(=C\C(C)C)C(C)OC(C)(C)COC(=O)C1CC1 (centres unmarked) [Example 2, (3″E)-2′-(3″-Ethyl-5″-methylhex-3″-en-2″yloxy)-2′-methylpropyl cyclopropanecarboxylate]","musky, powdery with slightly waxy facets and some reminiscence to macrocyclic musks"
